PubChem BioAssay AID493246 | Drosophila RNAi Screening Center | 2011
The deposit covers about 21,000 reagents; this is a random part of those that have a named target and a result. In the full data, 429 (2%) are marked active. 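Values are raw and not normalised between plates; calls rest on per-plate z-scores that were not deposited.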 Names joined by + are all predicted targets of the reagent. Reagent sequences are not shown. The record does not give: the amount of reagent, the time to read-out.

- Purpose: 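Genes fly cells need to grow and stay alive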 (primary screen)
- Cells: Drosophila Kc and S2R+ cells
- Reagents: long dsRNA against Drosophila genes
- Read-out: 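Raw, unnormalised count of remaining cells in each well; per-plate z-scores of cell number underlie the calls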
- Direction: Kc cell number and S2R+ cell number: higher = more cells remaining
- Rule for the call: 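Active when the per-plate z-score of cell number is 3 or more in the direction of fewer cells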

| predicted target | amplicon | Kc cell number, rep 1 | Kc cell number, rep 2 | S2R+ cell number, rep 1 | S2R+ cell number, rep 2 | outcome |
| --- | --- | --- | --- | --- | --- | --- |
| CG3732 | DRSC04410 | 1.52e6 | 1.67e6 | 9.59e5 | 9.76e5 | inactive |
| wls | DRSC10605 | 1.38e6 | 1.51e6 | 1.35e6 | 1.13e6 | inactive |
| CG6126 | DRSC15971 | 1.70e6 | 1.90e6 | 1.09e6 | 1.22e6 | inactive |
| CG15864 | DRSC15122 | 1.55e6 | 1.63e6 | 1.32e6 | 1.50e6 | inactive |
| gce | DRSC19613 | 1.54e6 | 1.56e6 | 1.08e6 | 1.16e6 | inactive |
| gce | DRSC19974 | 1.55e6 | 1.54e6 | 9.60e5 | 1.08e6 | inactive |
| Dhrs4 | DRSC09773 | 1.41e6 | 1.48e6 | 1.34e6 | 1.18e6 | inactive |
| Targ | DRSC06206 | 1.54e6 | 1.48e6 | 1.13e6 | 1.15e6 | inactive |
| Rox8 | DRSC16829 | 1.51e6 | 1.48e6 | 9.90e5 | 1.04e6 | inactive |
| LManI | DRSC02838 | 1.68e6 | 1.69e6 | 1.23e6 | 1.44e6 | inactive |
| GlyT | DRSC04512 | 1.63e6 | 1.79e6 | 1.24e6 | 1.42e6 | inactive |
| alphaTry | DRSC07577 | 1.58e6 | 1.64e6 | 1.38e6 | 1.43e6 | inactive |
| anchor | DRSC10861 | 1.67e6 | 1.66e6 | 1.43e6 | 1.40e6 | inactive |
| ndl | DRSC11374 | 1.49e6 | 1.42e6 | 1.19e6 | 1.17e6 | inactive |
| CG3191 | DRSC18530 | 5.20e5 | – | 8.98e5 | – | inactive |
| CG13712 | DRSC08321 | 1.62e6 | 1.58e6 | 1.04e6 | 1.18e6 | inactive |
| Indy-2 + CG33934 | DRSC15685 | 1.53e6 | 1.57e6 | 1.25e6 | 1.26e6 | inactive |
| Indy-2 + CG33934 | DRSC15686 | 1.42e6 | 1.44e6 | 1.02e6 | 1.10e6 | inactive |
| DCP2 | DRSC10597 | 1.26e6 | 1.32e6 | 9.14e5 | 1.00e6 | inactive |
| Tusp | DRSC15838 | 1.60e6 | 1.71e6 | 1.02e6 | 1.18e6 | inactive |
| Pgant3 | DRSC05942 | 1.39e6 | 1.46e6 | 1.09e6 | 1.13e6 | inactive |
| Acsx3 | DRSC14309 | 1.42e6 | 1.54e6 | 1.14e6 | 1.18e6 | inactive |
| CG2962 | DRSC18247 | 6.34e5 | – | 9.57e5 | – | inactive |
| MKP-4 | DRSC19567 | 1.74e6 | 1.68e6 | 1.06e6 | 1.20e6 | inactive |
| hfw | DRSC18506 | 1.55e6 | 1.52e6 | 1.00e6 | 1.14e6 | inactive |
| REPTOR | DRSC14626 | 1.42e6 | 1.55e6 | 1.16e6 | 1.20e6 | inactive |
| Pdi | DRSC11250 | 1.38e6 | 1.47e6 | 1.18e6 | 1.29e6 | inactive |
| CG2182 | DRSC12308 | 1.45e6 | 1.49e6 | 1.21e6 | 1.26e6 | inactive |
| Ccp84Ab | DRSC12587 | 1.39e6 | 1.49e6 | 1.17e6 | 1.25e6 | inactive |
| CG5359 | DRSC15780 | 1.60e6 | 1.63e6 | 1.18e6 | 1.33e6 | inactive |
| qkr58E-2 | DRSC04710 | 1.64e6 | 1.73e6 | 1.27e6 | 1.44e6 | inactive |
| CG13893 | DRSC08363 | 1.59e6 | 1.50e6 | 9.79e5 | 1.25e6 | inactive |
| CG4701 | DRSC01952 | 1.49e6 | 1.57e6 | 1.16e6 | 1.26e6 | inactive |
| Pp1-13C | DRSC20269 | 1.53e6 | 1.41e6 | 9.03e5 | 9.64e5 | inactive |
| Amt | DRSC16055 | 1.23e6 | 1.32e6 | 1.25e6 | 1.34e6 | inactive |
| CG2924 | DRSC18525 | 5.12e5 | – | 9.09e5 | – | inactive |
| CG9297 | DRSC16469 | 1.62e6 | 1.65e6 | 1.33e6 | 1.33e6 | inactive |
| m | DRSC20181 | 1.66e6 | 1.61e6 | 9.59e5 | 1.02e6 | inactive |
| qkr58E-3 | DRSC04711 | 1.39e6 | 1.49e6 | 1.03e6 | 1.10e6 | inactive |
| CG10232 | DRSC14218 | 1.52e6 | 1.52e6 | 9.76e5 | 1.07e6 | inactive |
| SdhA | DRSC07547 | 1.36e6 | 1.43e6 | 1.16e6 | 1.15e6 | inactive |
| Hakai | DRSC02031 | 1.52e6 | 1.53e6 | 1.35e6 | 1.35e6 | inactive |
| Prm | DRSC08941 | 1.33e6 | 1.46e6 | 1.09e6 | 1.26e6 | inactive |
| Prm | DRSC08942 | 1.36e6 | 1.43e6 | 9.83e5 | 1.14e6 | inactive |
| Prm | DRSC11255 | 1.37e6 | 1.47e6 | 1.26e6 | 1.21e6 | inactive |
| CG42286 (retired record) | DRSC14357 | 1.63e6 | 1.72e6 | 1.06e6 | 1.16e6 | inactive |
| CG15561 | DRSC15100 | 1.77e6 | 1.80e6 | 1.13e6 | 1.28e6 | inactive |
| t-Grip128 | DRSC07853 | 1.47e6 | 1.42e6 | 9.71e5 | 1.18e6 | inactive |
| CG2104 | DRSC12304 | 1.36e6 | 1.56e6 | 1.22e6 | 1.29e6 | inactive |
| G9a | DRSC18619 | 1.45e6 | 1.47e6 | 1.11e6 | 1.20e6 | inactive |
| alphaCOP | DRSC08706 | 1.50e6 | 1.57e6 | 8.26e5 | 9.24e5 | inactive |
| da | DRSC03517 | 1.91e6 | 1.97e6 | 1.25e6 | 1.42e6 | inactive |
| Nuak | DRSC14414 | 1.68e6 | 1.74e6 | 1.36e6 | 1.48e6 | inactive |
| Nuak | DRSC14415 | 1.61e6 | 1.63e6 | 1.33e6 | 1.39e6 | inactive |
| Nuak | DRSC14416 | 1.57e6 | 1.69e6 | 1.43e6 | 1.55e6 | inactive |
| Wnt2 | DRSC05160 | 1.43e6 | 1.43e6 | 9.43e5 | 1.01e6 | inactive |
| Wnt2 | DRSC07574 | 1.57e6 | 1.62e6 | 1.26e6 | 1.39e6 | inactive |
| CG34007 | DRSC01790 | 5.41e5 | – | 8.36e5 | – | inactive |
| CG16719 | DRSC10222 | 1.40e6 | 1.42e6 | 1.31e6 | 1.26e6 | inactive |
